According to patent publication US20140056952A1, “METHODS AND COATINGS FOR TREATING BIOFILMS” (President and Fellows of Harvard College, priority 2011, published 2014):
Some results were stated once for a whole list of compounds, not compound by compound. At least one compound was matched to its structure with a doubt left.

Test system: B. subtilis strain NCBI3610
Test: Pellicle (biofilm) formation inhibition assay in liquid biofilm-inducing medium
Format: cell-based, Bacillus subtilis
Conditions: B. subtilis
Experimental: Bacillus subtilis strains PY79, 3610 and their derivatives were grown in Luria-Bertani (LB) medium at 37° C. or MSgg medium (1) at 23° C. Solid media contained 1.5% Bacto agar. When appropriate, antibiotics were added at the following concentrations for growth of B. subtilis: 10 μg per ml of tetracycline, and 5 μg per ml of erythromycin, 500 μg per ml of spectinomycin.
B. subtilis strain NCBI3610 was grown at 22° C. in 12-well plates in liquid biofilm-inducing medium for 3 or 8 days. Conditioned medium (500 ml) from an 8-day-old culture was concentrated on the C-18 column and eluted step-wise with methanol.
To identify the second biofilm-inhibiting factor, high-performance liquid chromatography (HPLC) was carried out on the 25% methanol eluate using a phenyl-hexyl column. […] Cells of NCBI3610 were grown in fresh medium containing PBS buffer (control), norspermidine (100 μM), morpholine (100 μM) HPLC-purified fatty acid (˜100 μM), or spermidine (100 μM).
Pellicle formation of strain NCBI 3610 was tested in the presence of the indicated concentrations of norspermidine (FIG. 1D) or spermidine (FIG. 1E).
To identify features of norspermidine important for its biofilm disassembly activity, we tested a library of polyamines in our biofilm inhibition assay (FIGS. 9A, 9B, 10 and Table 2).
The effect of polyamines on pellicle formation by B. subtilis was examined. B. subtilis wild-type cells were grown to a mid-logarithmic phase and diluted 1:1000 in biofilm media applied with each polyamine to the final concentration of 50 μM.
The effect of cyclic polyamines on biofilm formation by B. subtilis was examined. B. subtilis wild-type cells were grown to a mid-logarithmic phase and diluted 1:1000 in biofilm media (18A) or in a medium applied with cyclic compound 1,5,9-Triazacyclododecane to the final concentration of 50 μM (18B).

Question: With CN(C)N(CCC(N)=O)CCC(N)=O [Molecule 16, 3,3′-(2,2-dimethylhydrazine-1,1-diyl)dipropanamide] as the compound, how does the “biofilm-inhibitory activity (library of polyamines)” value (“biofilm-inhibitory activity” below) read?
Answer: only weakly active or inactive

Question: Which “biofilm-inhibitory activity” value does the source give for NCCCOCCCN [Molecule 10, 3,3′-oxybis(propan-1-amine)] here?
Answer: relatively inactive

Question: How did the “biofilm-inhibitory activity” value turn out when OCCCNCCCO [Molecule 20, 3,3′-azanediylbis(propan-1-ol)] was run?
Answer: relatively inactive

Question: Which “biofilm-inhibitory activity” value does the source give for CN(C)CCCN(C)CCCN(C)C [Molecule 7, N^1-(3-(dimethylamino)propyl)-N^1,N^3,N^3-trimethylpropane-1,3-diamine] here?
Answer: relatively inactive

Question: How did the “biofilm-inhibitory activity” value turn out when CCOC(=O)CCC(=O)CCC(=O)OCC [Molecule 11, Diethyl 4-oxoheptanedioate] was run?
Answer: relatively inactive

Question: With CN(C)CCCNCCCN(C)C [Molecule 8, N^1-(3-(dimethylamino)propyl)-N^3, N^3-dimethylpropane-1,3-diamine] as the compound, how does the “biofilm-inhibitory activity” value read?
Answer: relatively inactive

Question: With CN(CCCN)CCCN [Molecule 9, (3-aminopropyl)-N^1-methylpropane-1,3-diamine] as the compound, how does the “biofilm-inhibitory activity” value read?
Answer: relatively inactive

Question: Which “biofilm-inhibitory activity” value does the source give for NNC(=O)Cc1ccc(CC(=O)NN)[nH]1 [Molecule 15, 2,2′-(1H-pyrrole-2,5-diyl)di(acetohydrazide)] here?
Answer: only weakly active or inactive

Question: How did the “biofilm-inhibitory activity” value turn out when O=C(NCCCNCCCNC(=O)C(O)C(O)C(O)C(O)CO)C(O)C(O)C(O)C(O)CO (stereo not shown) [Molecule 17, N,N′-(azanediylbis(propane-3,1-diyl))bis(2,3,4,5,6-pentahydroxyhexanamide)] was run?
Answer: only weakly active or inactive

Same assay, conditions: B. subtilis pellicle formation

Question: NCCCCCN [Molecule 19, pentane-1,5-diamine, reference compound] was tested. Which “concentration needed for inhibition of biofilm formation” value did it give?
Answer: above 2 mM
